{
  "source": "patent US20240130994A1",
  "about": "“IONIC LIQUID FORMULATIONS FOR TREATING DIABETES” (i2O Therapeutics, Inc., priority 2020, published 2024)",
  "test": "Physical form of choline-based ionic liquids at room temperature",
  "format": "physicochemical",
  "protocol": "Several ionic liquids comprising choline as a cation and various anions were synthesized. […] For anions not miscible with the aqueous choline bicarbonate solution, a co-solvent, such as ethanol, was added until a homogenous mixture formed. The mixture was stirred at room temperature until CO2 evolution ceased. Solvent was removed by rotary evaporation at 60° C. for 20 minutes, and each product was dried in a vacuum oven for 48 hours at 60° C.",
  "note": "At least one compound was matched to its structure with a doubt left.",
  "data": [
    {"smiles": "C[C@H](CCC(=O)O)[C@H]1CC[C@H]2[C@@H]3CC[C@@H]4C[C@H](O)CC[C@]4(C)[C@H]3C[C@H](O)[C@]12C", "note": "[Deoxycholic Acid]", "values": [
      {"measurement": "Physical Form (Ratios Listed as Cation:Anion)", "setting": "cation:anion 1:1, room temperature", "result": "Solid at 2:1, 1:1"},
      {"measurement": "Physical Form (Ratios Listed as Cation:Anion)", "setting": "cation:anion 2:1, room temperature", "result": "Solid at 2:1, 1:1"}
    ]}
  ]
}
